Paper PMC8421641
These are yes or no findings as the source states them, for the method shown. In cells and extracts the contact can be indirect. Some results given as binding are weak or reduced against the parent protein; the word gives no strength.

Sequences of proteins named here, by UniProt entry; tags and fusion partners are left off. A change or cut given only in a name is not applied to a line headed by its entry. Residues count along the entry.
UniProt P07585, residues 31-359: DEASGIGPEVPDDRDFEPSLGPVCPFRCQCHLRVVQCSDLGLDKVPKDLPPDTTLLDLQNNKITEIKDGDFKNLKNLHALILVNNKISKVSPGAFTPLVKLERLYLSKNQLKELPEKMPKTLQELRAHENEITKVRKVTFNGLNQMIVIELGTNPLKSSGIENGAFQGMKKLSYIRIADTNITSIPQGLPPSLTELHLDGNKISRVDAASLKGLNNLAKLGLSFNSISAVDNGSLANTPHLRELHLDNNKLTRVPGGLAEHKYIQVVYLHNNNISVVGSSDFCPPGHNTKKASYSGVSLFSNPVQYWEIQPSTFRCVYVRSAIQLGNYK
UniProt P05556: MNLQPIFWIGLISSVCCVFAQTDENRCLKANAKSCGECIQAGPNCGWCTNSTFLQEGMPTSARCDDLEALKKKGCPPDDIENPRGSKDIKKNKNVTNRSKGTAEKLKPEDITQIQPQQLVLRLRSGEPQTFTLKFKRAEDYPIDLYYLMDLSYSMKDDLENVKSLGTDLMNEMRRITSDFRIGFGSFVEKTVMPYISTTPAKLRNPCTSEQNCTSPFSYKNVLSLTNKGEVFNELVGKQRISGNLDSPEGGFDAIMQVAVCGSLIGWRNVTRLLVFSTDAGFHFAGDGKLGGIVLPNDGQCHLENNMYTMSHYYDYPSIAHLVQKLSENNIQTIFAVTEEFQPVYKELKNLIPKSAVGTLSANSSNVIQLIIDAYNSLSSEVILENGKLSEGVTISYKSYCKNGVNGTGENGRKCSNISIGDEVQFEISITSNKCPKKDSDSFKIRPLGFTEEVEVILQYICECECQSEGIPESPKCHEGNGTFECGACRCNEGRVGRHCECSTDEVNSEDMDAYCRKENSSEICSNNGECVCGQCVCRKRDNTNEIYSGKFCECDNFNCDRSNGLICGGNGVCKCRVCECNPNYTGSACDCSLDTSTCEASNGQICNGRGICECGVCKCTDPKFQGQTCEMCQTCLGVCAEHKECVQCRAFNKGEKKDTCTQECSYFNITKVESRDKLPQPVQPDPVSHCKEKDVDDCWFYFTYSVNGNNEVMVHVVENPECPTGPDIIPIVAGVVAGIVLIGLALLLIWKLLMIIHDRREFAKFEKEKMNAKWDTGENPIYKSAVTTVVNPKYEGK

Molecular target: Decorin (UniProt P07585)
Test: co-IP; cell lysate (Co-IP kit buffer with protease inhibitors), pre-cleared with protein A/G agarose beads; primary antibody at 4°C overnight, then Protein A/G beads at 4°C for 12 h; western blot; IP with DCN antibody, blot for integrin β1; cell line not stated

binding: binds
Substance: Integrin β1 (from UniProt P05556 21-798) (receptor)
